Experimental data published in PMC4490376.
No constants are given. Whether binding was seen depends on the method and setting. For some assays here: Binding seen in cells or lysates may run through a third protein. Some entries that bind do so weakly or less than the wild type. Tags and fused reporters may be left off the sequences shown. Each block holds one binder with its values, some of them ahead of it.

How the values were obtained:
[1] = molecular target: T1, C-terminally HA-tagged ABCG2 (ABCG2-HA), transiently expressed in MCF7-luc derivatives (UniProt Q9UNQ0); assay: proximity ligation; Duolink kit; MCF7-luc anti-NC and MCF7-luc anti-miR-27b cells transfected with pCMV6-ABCG2-HA, 48 h post-transfection; anti-ENPP1 and anti-HA primary antibodies; fluorescence microscopy
T1 sequence: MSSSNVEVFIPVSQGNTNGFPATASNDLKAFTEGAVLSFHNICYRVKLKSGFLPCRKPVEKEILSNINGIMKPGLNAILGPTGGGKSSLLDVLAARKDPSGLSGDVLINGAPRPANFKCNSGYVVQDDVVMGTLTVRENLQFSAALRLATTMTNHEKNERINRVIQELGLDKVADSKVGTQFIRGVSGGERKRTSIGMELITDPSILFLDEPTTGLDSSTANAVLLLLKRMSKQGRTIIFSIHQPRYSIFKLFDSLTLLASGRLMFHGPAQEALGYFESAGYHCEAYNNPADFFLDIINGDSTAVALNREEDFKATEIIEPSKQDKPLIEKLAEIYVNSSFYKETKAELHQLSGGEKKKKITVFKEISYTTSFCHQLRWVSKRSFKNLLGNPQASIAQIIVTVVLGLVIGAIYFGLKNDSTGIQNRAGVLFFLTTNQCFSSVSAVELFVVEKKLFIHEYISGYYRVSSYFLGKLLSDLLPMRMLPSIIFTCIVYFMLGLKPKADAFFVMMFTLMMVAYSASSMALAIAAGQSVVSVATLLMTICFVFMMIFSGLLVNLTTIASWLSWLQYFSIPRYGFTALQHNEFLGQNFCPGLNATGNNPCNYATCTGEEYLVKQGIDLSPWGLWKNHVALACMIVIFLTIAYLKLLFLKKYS

[2] = molecular target: T2, C-terminally HA-tagged ABCG2 (ABCG2-HA), made in insect cell extract (UniProt Q9UNQ0); assay: co-IP; in vitro binding assay: affinity-purified ABCG2-HA (insect cell extract) mixed with affinity-purified ENPP1-MF or GFP-F (293T); co-immunoprecipitation with anti-HA or anti-Flag agarose, 4 h at 4 °C, 20 mM Tris-HCl pH 8.0, 150 mM NaCl, 1 mM EDTA, 0.1% NP-40, 10% glycerol, 1 mM DTT; both purified
T2 sequence: T1 sequence

binding [1]: binds
B1: ectonucleotide pyrophosphatase/phosphodiesterase family member 1 (ENPP1), endogenous (protein, UniProt P22413 1-925)
chain: MERDGCAGGGSRGGEGGRAPREGPAGNGRDRGRSHAAEAPGDPQAAASLLAPMDVGEEPLEKAARARTAKDPNTYKVLSLVLSVCVLTTILGCIFGLKPSCAKEVKSCKGRCFERTFGNCRCDAACVELGNCCLDYQETCIEPEHIWTCNKFRCGEKRLTRSLCACSDDCKDKGDCCINYSSVCQGEKSWVEEPCESINEPQCPAGFETPPTLLFSLDGFRAEYLHTWGGLLPVISKLKKCGTYTKNMRPVYPTKTFPNHYSIVTGLYPESHGIIDNKMYDPKMNASFSLKSKEKFNPEWYKGEPIWVTAKYQGLKSGTFFWPGSDVEINGIFPDIYKMYNGSVPFEERILAVLQWLQLPKDERPHFYTLYLEEPDSSGHSYGPVSSEVIKALQRVDGMVGMLMDGLKELNLHRCLNLILISDHGMEQGSCKKYIYLNKYLGDVKNIKVIYGPAARLRPSDVPDKYYSFNYEGIARNLSCREPNQHFKPYLKHFLPKRLHFAKSDRIEPLTFYLDPQWQLALNPSERKYCGSGFHGSDNVFSNMQALFVGYGPGFKHGIEADTFENIEVYNLMCDLLNLTPAPNNGTHGSLNHLLKNPVYTPKHPKEVHPLVQCPFTRNPRDNLGCSCNPSILPIEDFQTQFNLTVAEEKIIKHETLPYGRPRVLQKENTICLLSQHQFMSGYSQDILMPLWTSYTVDRNDSFSTEDFSNCLYQDFRIPLSPVHKCSFYKNNTKVSYGFLSPPQLNKNSSGIYSEALLTTNIVPMYQSFQVIWRYFHDTLLRKYAEERNGVNVVSGPVFDFDYDGRCDSLENLRQKRRVIRNQEILIPTHFFIVLTSCKDTSQTPLHCENLDTLAFILPHRTDNSESCVHGKHDSSWVEELLMLHRARITDVEHITGLSFYQQRKEPVSDILKLKTHLPTFSQED

binding [2]: binds
B2: C-terminally Myc- and Flag-tagged ENPP1 (ENPP1-MF) (protein, UniProt P22413 1-925)
chain: B1 chain
